The campaign covered roughly 580,000 compounds. About 6,100 (1.1%) were called active. The shares of active, inactive and inconclusive entries below differ from those in the screen. Calls come from the whole dose curve; as a rule, active = well fitted inhibition curve with a large enough effect; inconclusive = small, poorly fitted or top-dose-only effect, or another doubt; inactive = no such curve, though single readings can be large or run the other way. A potency beside an inconclusive call is a rough fit, not a confirmed value.
target: Polyunsaturated fatty acid lipoxygenase ALOX12 (Homo sapiens) (UniProt P18054); test: Primary qHTS assay for inhibitors of human arachidonate 12S-lipoxygenase (ALOX12): Round 2; settings: purified 12hLO, xylenol orange hydroperoxide absorbance; activity change, negative = inhibition: at 108 µM (top of the series) unless noted
Method in brief: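 Hydroperoxide product was detected by ferrous iron/xylenol orange as the 573 to 405 nm absorbance ratio. Arachidonic acid at 40 uM (final) was turned over for 30 min at room temperature by 150 nM human 12hLO, pH 7.0 Hepes buffer, after 15 min compound preincubation.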
% is set by controls: 0 for no effect and ±100 for the full control effect; potency is the fitted concentration of half-maximal effect.

By UniProt entry, the sequences of proteins in these tests, tags left out. Where a name states a change or a piece, a line headed by the entry shows the natural chain unless it says otherwise.
UniProt P18054: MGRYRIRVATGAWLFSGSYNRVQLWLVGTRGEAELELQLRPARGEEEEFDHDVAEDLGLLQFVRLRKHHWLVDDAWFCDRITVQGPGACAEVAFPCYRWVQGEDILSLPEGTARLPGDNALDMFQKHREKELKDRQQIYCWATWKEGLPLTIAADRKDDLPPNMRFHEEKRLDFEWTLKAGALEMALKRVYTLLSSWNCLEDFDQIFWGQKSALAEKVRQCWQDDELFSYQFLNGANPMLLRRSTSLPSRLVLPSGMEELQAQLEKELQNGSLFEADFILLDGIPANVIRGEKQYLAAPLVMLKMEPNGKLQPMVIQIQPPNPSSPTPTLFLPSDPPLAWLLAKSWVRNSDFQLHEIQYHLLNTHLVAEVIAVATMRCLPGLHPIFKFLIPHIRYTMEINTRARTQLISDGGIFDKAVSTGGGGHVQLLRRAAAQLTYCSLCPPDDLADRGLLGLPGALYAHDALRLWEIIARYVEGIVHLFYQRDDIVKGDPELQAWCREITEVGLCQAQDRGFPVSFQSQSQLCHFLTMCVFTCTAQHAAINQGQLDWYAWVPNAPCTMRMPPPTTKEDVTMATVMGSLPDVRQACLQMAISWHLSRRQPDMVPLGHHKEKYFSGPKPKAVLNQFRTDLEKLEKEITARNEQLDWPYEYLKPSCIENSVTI

| Structure (SMILES) | Potency | activity change, negative = inhibition |
| --- | --- | --- |
| COc1cc(CNc2ccc(N3CCCC3)cc2)ccc1OCc1ccccc1 | inconclusive: 44.7 µM [inhibitor, partial curve, poor fit] | – |
| CN(C)c1cccc(C(=O)OCCCC(=O)c2ccc(F)cc2)c1 | inconclusive: 39.8 µM [inhibitor, partial curve, poor fit] | – |
| O=C(Nc1nnc([C@H]2C[C@H](O)[C@@H](CO)O2)s1)c1ccccc1F | inconclusive: 39.8 µM [inhibitor, single point] | – |
| O=C1OCCC1(c1ccccc1)c1ccccc1 | inconclusive: 50.1 µM [inhibitor, partial curve, poor fit] | – |
| COc1cccc(Cn2cccc(NC(=O)NC3CCCCC3)c2=O)c1 | inconclusive: 31.6 µM [inhibitor, single point] | – |
| COc1ccc(C(C(=O)Nc2c(C)cccc2C)N2CCN(c3ccc(C)cc3)CC2)cc1 (stereo unspecified) | inconclusive: 141 µM [inhibitor, partial curve, poor fit] | – |
| O=c1[nH]c(SCc2cccc([N+](=O)[O-])c2)nc2[nH]ncc12 | inactive | – |
| CCCCCCCCN1C(=O)[C@@H](CC(=O)NCCc2ccccc2OC)C[C@@]2(C(=O)OC)C1=C[C@H](C1CCCC1)O[C@@H]2C | inconclusive: 6.31 µM [inhibitor, full curve, poor fit] | – |
| CCC(C)(C)NC(=O)Cc1csc(-c2ccccc2)n1 | inconclusive: 31.6 µM [inhibitor, single point] | – |
| Cc1nc2ccc(C(=O)O)cc2c2c1CC(CN)O2 (stereo unspecified) | inconclusive: 28.2 µM [inhibitor, partial curve, poor fit] | – |
| COc1cc(C)c(C(=O)Oc2cc(C)c(C(=O)O)c(O)c2)c(O)c1 | inconclusive: 28.2 µM [inhibitor, partial curve, poor fit] | – |
| CCOC(=O)C1=C(C)N(C[C@@H]2CC[C@@H](Cc3ccc(-c4ccccc4)cc3)O2)C(=O)NC1c1ccc(Cl)cc1 (stereo partly specified) | inactive | – |
| CCOC(=O)C(Cc1ccccc1)C(=O)Nc1ccc(N(CC)CC)cc1 (stereo unspecified) | inconclusive: 0.316 µM [inhibitor, full curve, poor fit] | – |
| CCOc1ccc(NCC(=O)c2ccc(C)cc2)cc1 | inconclusive: 35.5 µM [inhibitor, partial curve, poor fit] | – |
| COc1cccc(NC(=O)CSc2nc3ccccc3c(=O)n2-c2ncn[nH]2)c1 | inactive | – |
| CNC(=S)N/N=C/c1cn(CCOc2ccccc2OC)c2ccccc12 | inconclusive: 39.8 µM [inhibitor, partial curve, poor fit] | – |
| COc1cc2c(cc1OC)CN(C(=O)/C=C/c1ccc([N+](=O)[O-])cc1)CC2 | active: 14.1 µM | – |
| O=C(Nc1nc2n(n1)C(c1ccccc1)C=C(c1ccccc1)N2)c1ccc(Cl)c([N+](=O)[O-])c1 (stereo unspecified) | inconclusive: 56.2 µM [inhibitor, partial curve, poor fit] | – |
| COc1cccc(-c2ccc3c(N)c(C(=O)c4ccc(Cl)cc4)sc3n2)c1 | inactive | – |
| C(=N\n1cnnc1)/c1ccc(N2CCOCC2)s1 | inconclusive: 22.4 µM [inhibitor, partial curve] | – |
| O=C(OC1CCOC1=O)c1ccc2ccccc2n1 (stereo unspecified) | inconclusive: 70.8 µM [inhibitor, partial curve, poor fit] | – |
| Cc1nn(Cc2cc(C(=O)O)c3ccccc3n2)c(C)c1Br | inconclusive: 39.8 µM [inhibitor, partial curve, poor fit] | – |

| Structure (SMILES) | Potency | activity change, negative = inhibition |
| --- | --- | --- |
| CCNc1c(NC(=O)Nc2ccc(CC)cc2)c(=O)oc2ccccc12 | active: 44.7 µM | – |
| CCOc1ccc(CC(=O)N2CCC(Cc3nc(-c4ccc(OC)cc4)no3)CC2)cc1OCC | inactive | – |
| COc1ccc(CCNC(=O)CN(C)S(=O)(=O)c2cccs2)cc1OC | inactive | – |
| CCc1ccc(CN2CCCCC23Cc2ccccc2CNC3=O)cc1 (stereo unspecified) | inconclusive: 89.1 µM [inhibitor, partial curve, poor fit] | – |
| Cc1cccc(C(C)C)c1NC(=O)c1ccc2c(c1)CCC2 | inconclusive: 89.1 µM [inhibitor, single point] | – |
| O=C(O)c1cc(O)ccc1O | inconclusive: 28.2 µM [inhibitor, partial curve] | – |
| CCCCOc1ccccc1N1CCN(CCCN2C(=O)C3CCCN3C2=O)CC1 (stereo unspecified) | inconclusive: 31.6 µM [inhibitor, partial curve, poor fit] | – |
| COC(=O)CSc1nc(-c2cccs2)ccc1C#N | inconclusive: 17.8 µM [inhibitor, full curve, poor fit] | – |
| COc1cc(NC(=O)c2nnn(Cc3ccc(SC)cc3)c2N)cc(OC)c1 | inactive | – |
| COc1ccc(C(=O)/C=C/C(=O)N(CC(=O)NC2CCCCC2)Cc2cccs2)c(O)c1 | inconclusive: 63.1 µM [inhibitor, partial curve, poor fit] | – |
| CCn1c(CN2c3ccccc3Sc3ccccc32)n[nH]c1=S | active: 8.91 µM | – |
| COc1ccc(OCc2cc(=O)[nH]c3ccccc23)cc1 | inconclusive: 5.01 µM [inhibitor, full curve, poor fit] | – |
| CC(C)NC(=S)NC(=O)c1ccc(Cl)cc1Cl | inconclusive: 39.8 µM [inhibitor, partial curve] | – |
| O=C(COc1ncnc2c(Cl)cc(Cl)cc12)Nc1ccc(Cl)cc1 | inactive | – |
| Cc1ccc(Cl)cc1NC(=O)Cn1cnc2c1c(=O)n(C)c(=O)n2C | inactive | – |
| CCCC#Cc1cnc2c(c1)C(=O)N([C@H](C)CO)C[C@@H](C)[C@@H](CN(C)C(=O)Nc1cccc(F)c1)O2 | inconclusive: 39.8 µM [inhibitor, partial curve, poor fit] | – |
| CC(C)(C)NC(=O)C(c1ccc(F)cc1)N(CCc1ccccc1)C(=O)c1ccn[nH]1 (stereo unspecified) | inactive | – |
| CC(=O)N1CCCc2cc(S(=O)(=O)N3CCCC(C(=O)Nc4ccccc4C)C3)ccc21 (stereo unspecified) | inactive | – |
| COC(=O)c1ccc(CNC(C)=O)cc1 | inconclusive: 112 µM [inhibitor, single point] | – |
| CCNc1sc(C(=O)c2cccs2)c(N)c1C#N | inconclusive: 44.7 µM [inhibitor, partial curve, poor fit] | – |
| Cc1ccc(-c2c(C(=O)N/N=C/c3c[nH]c4ccccc34)nnn2-c2nonc2N)cc1 | inactive | – |
| Cc1cc(NS(=O)(=O)c2ccc(OCCNS(C)(=O)=O)cc2)no1 | inactive | – |

In the list so far, two have a cyano group:

| Structure (SMILES) | Potency | activity change, negative = inhibition |
| --- | --- | --- |
| COC(=O)CSc1nc(-c2cccs2)ccc1C#N | inconclusive: 17.8 µM [inhibitor, full curve, poor fit] | – |
| CCNc1sc(C(=O)c2cccs2)c(N)c1C#N | inconclusive: 44.7 µM [inhibitor, partial curve, poor fit] | – |

More records follow.

| Structure (SMILES) | Potency | activity change, negative = inhibition |
| --- | --- | --- |
| Nc1nccnc1C(=O)Nc1ccccn1 | inconclusive: 50.1 µM [inhibitor, partial curve, poor fit] | – |
| CCCN(CC1CCOC1)C(=O)NC1CCCC1 (stereo unspecified) | inactive | – |
| S=C(NCCc1ccccc1)N/N=C/c1ccc(Cl)cc1 | inconclusive: 22.4 µM [inhibitor, partial curve, poor fit] | – |
| COc1cccc(NC(=S)/C(=C(\[O-])c2cc(C)n(-c3ccccc3F)c2C)[n+]2ccc(N(C)C)cc2)c1 | inconclusive: 44.7 µM [inhibitor, partial curve, poor fit] | – |
| CN1CCN(CC(=O)c2cc(C(C)(C)C)c(O)c(C(C)(C)C)c2)CC1 | inconclusive: 39.8 µM [inhibitor, partial curve, poor fit] | – |
| CC1(C)Cc2c(C#N)c(N3CCOCC3)nc(-c3ccccc3)c2CO1 | inconclusive: 112 µM [inhibitor, single point] | – |
| S=C(Nc1cccnc1)Nc1ccccc1Br | inactive | – |
| O=C(NC1CCN(Cc2ccccc2)CC1)c1cn(-c2ccccc2)nc1-c1cccnc1 | inconclusive: 50.1 µM [inhibitor, partial curve, poor fit] | – |
| COc1ccccc1NC(=O)c1csc2c1CCCC2 | inconclusive: 50.1 µM [inhibitor, partial curve, poor fit] | – |
| O=C(Nn1c(COc2ccccc2)nc2ccccc2c1=O)C(Cl)(Cl)Cl | inconclusive: 7.94 µM [inhibitor, partial curve, poor fit] | – |
| C=C[C@@H]1c2c(F)cccc2N(S(=O)(=O)c2ccc(C)cc2)[C@H](c2ccc(C(=O)OC)cc2)C1(C#N)C#N | inconclusive: 44.7 µM [inhibitor, partial curve, poor fit] | – |
| O=C(Nc1ccc(NC(=O)C2CCCCC2)nc1)c1cccs1 | inactive | – |
| Cc1oc(-c2ccc(Cl)cc2)nc1CN1CCCC(C(=O)N2CCOCC2)C1 (stereo unspecified) | inconclusive: 50.1 µM [inhibitor, partial curve, poor fit] | – |
| O=[S+]([O-])(c1ccccc1)N1CC(N2CCc3ccccc32)C1 | – | inactive: 4.3% [at 6.33 µM] |
| Cc1nccn1C(c1ccccc1)c1ccccc1 | inactive | – |
| COc1cc2cncc(Cc3ccccc3)c2cc1O | inconclusive: 112 µM [inhibitor, partial curve, poor fit] | – |
| CCCN(CCC)Cc1cc(=O)oc2cc(C)c(Cl)cc12 | active: 39.8 µM | – |
| O=C(/C=C/c1ccco1)Nc1cccc(-c2nc3ccccc3[nH]2)c1 | inconclusive: 15.8 µM [inhibitor, full curve, poor fit] | – |
| C#CCN(Cc1ccc(C)cc1)C(=O)C1CCCN(C(=O)CC)C1 (stereo unspecified) | inconclusive: 35.5 µM [inhibitor, single point] | – |
| CSc1ccc(/C=C/C(=O)c2ccc(S(=O)(=O)NCC(=O)O)cc2)cc1 | inconclusive: 35.5 µM [inhibitor, partial curve, poor fit] | – |
| Cn1cc(Cl)c(C(=O)OCC(=O)Nc2nc(-c3ccc(Br)cc3)cs2)n1 | inconclusive: 56.2 µM [inhibitor, partial curve, poor fit] | – |
| CC(=O)N1CCc2c(sc(NC(=O)c3ccc([N+](=O)[O-])o3)c2C(N)=O)C1 | inconclusive: 50.1 µM [inhibitor, partial curve, poor fit] | – |
